# This is one part of the list. Repeats in this data set agree poorly, so a single value says little.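 Free-swimming zebrafish larvae were assessed for O-bend response probability to dark flashes (naive: first five; training: remaining flashes across four 60-flash blocks; test: later 60-flash block) and for OMR turning toward alternating leftward/rightward LED motion. Six treated larvae were compared against sixty 0.1% DMSO controls; hits required |SSMD|≥2.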
# How the values were obtained:
# Conditions in all cases: 10 µM; pre-incubation: 30-90 min
# [1] = system: Danio rerio larvae (5 dpf, TLF); assay: OMR-Perf (SSMD vs DMSO vehicle); higher = higher than vehicle (e.g. higher dark-flash O-bend response probability, or better optomotor performance)
# [2] = system: Danio rerio larvae (5 dpf, TLF); assay: Prob-Test (SSMD vs DMSO vehicle); higher = higher than vehicle (e.g. higher dark-flash O-bend response probability, or better optomotor performance)
# [3] = system: Danio rerio larvae (5 dpf, TLF); assay: Prob-Naive (SSMD vs DMSO vehicle); higher = higher than vehicle (e.g. higher dark-flash O-bend response probability, or better optomotor performance)
# [4] = system: Danio rerio larvae (5 dpf, TLF); assay: Prob-Train (SSMD vs DMSO vehicle); higher = higher than vehicle (e.g. higher dark-flash O-bend response probability, or better optomotor performance)
SMILES,OMR-Perf [1],Prob-Test [2],Prob-Naive [3],Prob-Train [4]
Nc1ccn([C@@H]2O[C@H](CO)[C@@H](O)[C@H]2O)c(=O)n1 [Cytarabine],0.296,0.114,-0.205,0.263
CNCCc1ccccn1.Cl.Cl [Betahistine 2HCl],-0.123,-0.321,0.651,-0.0229
Cc1ccc(-n2nc(C(C)(C)C)cc2NC(=O)Nc2ccc(OCCN3CCOCC3)c3ccccc23)cc1 [BIRB 796 (Doramapimod)],-0.241,-0.775,-0.212,-0.605
CCCc1nc2c(C)cc(-c3nc4ccccc4n3C)cc2n1Cc1ccc(-c2ccccc2C(=O)O)cc1 [Telmisartan],-0.816,1.81,-0.418,-1.22
CN(C)CCC(c1ccc(Br)cc1)c1ccccn1.O=C(O)/C=C\C(=O)O (centres undefined) [Brompheniramine hydrogen maleate],0.727,0.253,-0.0832,-0.264
Cc1c(NC(=O)c2cccnc2)c(=O)n(-c2ccccc2)n1C [Nifenazone],-0.0678,0.0607,-0.0812,-0.0904
COc1ccccc1N1CCN(CCN2C(=O)CC3(CCCC3)CC2=O)CC1.Cl.Cl,-0.98,-1.1,-0.835,-0.885
O=c1[nH]c(=O)n([C@H]2CCCO2)cc1F,0.156,-0.126,0.0184,-0.0823
COCC(=O)NC/C=C/c1ccc2ncnc(Nc3ccc(Oc4ccc(C)nc4)c(C)c3)c2c1,0.322,-0.116,0.471,-0.445
Clc1ccc(C2(c3ccc(-c4cn[nH]c4)cc3)CCNCC2)cc1,-0.331,-0.179,0.313,-0.441
"O=c1[nH]cc(F)c(=O)[nH]1 [Fluorouracil (5-Fluoracil, 5-FU)]",-0.71,-0.244,0.454,0.28
CC(O)C(=O)O.CC(O)C(=O)O.CN1CCN(c2ccc3nc(-c4c(N)c5c(F)cccc5[nH]c4=O)[nH]c3c2)CC1 [Dovitinib (TKI-258) Dilactic Acid],0.199,-0.0474,0.319,0.117
CCn1cc(C(=O)O)c(=O)c2cc(F)c(N3CCNCC3)nc21 [Enoxacin],-0.196,-0.107,-0.266,-0.228
CNC(=O)c1ccc(N2C(=S)N(c3cnc(C#N)c(C(F)(F)F)c3)C(=O)C23CCC3)cc1F,-0.665,-0.448,0.287,-0.599
NC(=O)N1c2ccccc2CC(=O)c2ccccc21 [Oxcarbazepine],0.207,-0.0274,0.0551,-0.264
Nc1nc(=O)c2c([nH]1)NCC(CNc1ccc(C(=O)N[C@@H](CCC(=O)[O-])C(=O)[O-])cc1)N2C=O.O.O.O.O.O.[Ca+2] (some centres undefined) [Leucovorin Calcium],0.345,0.0554,0.306,0.249
CC(C)CC(=O)Nc1n[nH]c2c1CN(C(=O)C1CCN(C)CC1)C2(C)C,-0.432,0.234,0.564,0.175
Cn1cc(-c2ccc3nnc(Sc4ccc5ncccc5c4)n3n2)cn1,-0.387,-0.699,-0.417,-0.435
CNCC[C@H](Oc1cccc2ccccc12)c1cccs1.Cl [Duloxetine HCl],-0.0601,-1.07,-0.861,-0.867
N#C/C(=C(/N)Sc1ccc(N)cc1)c1ccccc1C(F)(F)F,-0.459,-1.56,-1.01,-2.49
CCN1CCN(Cc2ccc(Nc3ncc(F)c(-c4cc(F)c5nc(C)n(C(C)C)c5c4)n3)nc2)CC1.CS(=O)(=O)O,-0.454,0.22,0.0692,-0.205
C[C@]12CCC(=O)C=C1CC[C@@H]1[C@H]2[C@H](O)C[C@@]2(C)[C@H]1CC[C@@]2(O)C(=O)CO [Hydrocortisone],0.506,0.243,0.459,0.261
Cn1cc(C=C2C(=O)Nc3cccnc32)c2ccccc21,0.205,-0.987,-3.97,-2.36
CCC1=C[C@@H]2C[N@](C1)Cc1c([nH]c3ccccc13)[C@@](C(=O)OC)(c1cc3c(cc1OC)N(C)[C@H]1[C@@](O)(C(=O)OC)[C@H](OC(C)=O)[C@]4(CC)C=CCN5CC[C@@]31[C@H]54)C2 [Vinorelbine (Navelbine)],0.129,0.202,0.106,-0.0161
CN1CCCC1c1cccnc1.O=C(O)C(O)C(O)C(=O)O.O=C(O)C(O)C(O)C(=O)O (centres undefined) [Nicotine Ditartrate],-1.04,0.572,-0.456,-0.00846
Cl.O=S(=O)(c1cccc2cnccc12)N1CCCNCC1 [Fasudil (HA-1077) HCl],0.0104,-0.185,-0.043,0.323

SMILES,OMR-Perf [1],Prob-Test [2],Prob-Naive [3],Prob-Train [4]
CCCNC(=O)Nc1ccc(Oc2ncnc3cc(OC)c(OC)cc23)cc1Cl,-0.0258,-0.315,0.113,-0.267
Cc1cc(Nc2cc(CN3CCOCC3)c3nc(C)c(Cc4ccc(Cl)cc4F)n3n2)[nH]n1,-0.542,0.241,-0.152,0.296
O=C(Nc1ccc(S(=O)(=O)Nc2ccccc2Cl)c(Cl)c1)c1ccccn1,-0.0654,0.44,-2.31,-0.245
COc1ccc(C(=O)Nc2sc3c(c2C(N)=O)CCCC3)cc1OC,0.0577,-0.458,-0.499,-1.08
CC(C)[C@H](CNC(=O)[C@@H](NC(=O)c1cccc(-c2ccccc2)n1)[C@@H](C)O)B(O)O,0.218,-1.45,-0.91,-0.445
Cc1ccc(C)c(OCCCC(C)(C)C(=O)O)c1 [Gemfibrozil],0.186,-0.376,-2.21,-2.37
Cc1c(C(=O)N2CCOc3ccc(-c4ccc(N)nc4)cc3C2)ccc(S(C)(=O)=O)c1F,-0.19,0.406,0.538,0.0646
CC[C@@H]([C@H](C)O)n1ncn(-c2ccc(N3CCN(c4ccc(OC[C@@H]5CO[C@@](Cn6cncn6)(c6ccc(F)cc6F)C5)cc4)CC3)cc2)c1=O [Posaconazole],0.112,-0.523,0.573,-0.539
Nc1ncnc2nc[nH]c12.Nc1ncnc2nc[nH]c12.O=S(=O)(O)O [Adenine sulfate],0.772,0.0828,-0.106,0.0816
Cc1cc2c(F)c(Oc3ncnn4cc(OC[C@@H](C)OC(=O)[C@H](C)N)c(C)c34)ccc2[nH]1,-0.203,-1.74,-0.266,-1.05
COc1ccc(-c2cc(=O)c3c(O)cc(O)cc3o2)cc1O [Diosmetin],-0.351,-0.784,-0.298,-0.413
Cn1cnc2c1c(=O)[nH]c(=O)n2C [Theobromine],-0.25,-0.887,-0.247,-0.479
CCc1c(Cl)c(O)c(Cl)c(O)c1C(=O)O[C@H]1[C@H](O)[C@H](OC)[C@H](OC/C2=C\C=C\C[C@H](O)/C(C)=C\[C@H](CC)[C@H](O[C@@H]3OC(C)(C)[C@@H](OC(=O)C(C)C)[C@H](O)[C@H]3O)/C(C)=C/C(C)=C/C[C@H]([C@@H](C)O)OC2=O)O[C@@H]1C [Fidaxomicin],-0.202,-0.233,0.338,-0.101
COc1ccc(-c2ccc3c(N4CCOC[C@@H]4C)nc(N4CCOC[C@@H]4C)nc3n2)cc1CO,-0.388,-0.435,0.471,0.461
O=C1NCCc2[nH]c(-c3ccncc3)cc21,-0.243,0.14,-0.397,-0.165
C[N+](C)(CCOc1ccccc1)Cc1ccccc1.O=C(O)c1cc2ccccc2cc1[O-] [Bephenium Hydroxynaphthoate],0.133,0.43,-0.0583,0.412
Nc1ccc(S(=O)(=O)Nc2ccccn2)cc1 [Sulfapyridine],-0.289,0.629,-0.118,0.146
Nc1ncnc2c1c(-c1cnc3[nH]ccc3c1)nn2C1CCCC1,-0.728,-0.0186,-0.581,0.226
O=C(O)CCCN1CCC(O[C@@H](c2ccc(Cl)cc2)c2ccccn2)CC1.O=S(=O)(O)c1ccccc1 [Bepotastine Besilate],-0.215,-0.405,-0.156,-0.218
O=C(CCCN1CCC(O)(c2ccc(Cl)cc2)CC1)c1ccc(F)cc1 [Haloperidol],-0.725,-1.37,0.375,0.19
N[C@@H](CSCCCO)C(=O)O [Fudosteine],0.0876,-0.403,0.13,-0.636
Nc1nc(NC2CC2)c2ncn([C@H]3C=C[C@@H](CO)C3)c2n1.Nc1nc(NC2CC2)c2ncn([C@H]3C=C[C@@H](CO)C3)c2n1.O=S(=O)(O)O [Abacavir sulfate],-0.316,-0.47,0.549,-0.149
Cc1ccccc1-n1c(Cn2nc(-c3cccc(O)c3)c3c(N)ncnc32)nc2cccc(C)c2c1=O,0.299,-0.874,-0.13,-0.192
Cc1ccc(NC(=O)c2cccc(C(C)(C)C#N)c2)cc1Nc1ccc2ncn(C)c(=O)c2c1,-0.783,0.077,0.289,0.141
C[C@@H]1[C@H](C)C[C@@H](C(=O)O)C2CC[C@]3(C)C(=CC[C@H]4[C@@]5(C)CC[C@H](O)C(C)(C)[C@@H]5CC[C@]43C)[C@H]21 (some centres undefined) [Ursolic Acid],-0.917,0.00467,-0.617,-0.383

# Complete entries, looked up by structure:
# `CCc1c(Cl)c(O)c(Cl)c(O)c1C(=O)O[C@H]1[C@H](O)[C@H](OC)[C@H](OC/C2=C\C=C\C[C@H](O)/C(C)=C\[C@H](CC)[C@H](O[C@@H]3OC(C)(C)[C@@H](OC(=O)C(C)C)[C@H](O)[C@H]3O)/C(C)=C/C(C)=C/C[C@H]([C@@H](C)O)OC2=O)O[C@@H]1C` [Fidaxomicin] in the list: OMR-Perf [1]: -0.202; Prob-Test [2]: -0.233; Prob-Naive [3]: 0.338; Prob-Train [4]: -0.101
# `Cc1ccccc1-n1c(Cn2nc(-c3cccc(O)c3)c3c(N)ncnc32)nc2cccc(C)c2c1=O` in the list: OMR-Perf [1]: 0.299; Prob-Test [2]: -0.874; Prob-Naive [3]: -0.13; Prob-Train [4]: -0.192
# `CC(C)[C@H](CNC(=O)[C@@H](NC(=O)c1cccc(-c2ccccc2)n1)[C@@H](C)O)B(O)O` in the list: OMR-Perf [1]: 0.218; Prob-Test [2]: -1.45; Prob-Naive [3]: -0.91; Prob-Train [4]: -0.445
# `Nc1ncnc2nc[nH]c12.Nc1ncnc2nc[nH]c12.O=S(=O)(O)O` [Adenine sulfate] in the list: OMR-Perf [1]: 0.772; Prob-Test [2]: 0.0828; Prob-Naive [3]: -0.106; Prob-Train [4]: 0.0816
